Where “and” joins values, the source holds several entries; their conditions need not be identical. Identical values can stand only once. This is one part of the list. Single wells; the ratio to wells without odorant was worked out here, and repeats agree poorly.
Legend:
Experiment in all cases: odorant receptor activation (CRE luciferase / Renilla) (fold of no-odor wells); higher = more activation
Settings in all cases: 100 µM
[1] = system: OR56B4 P277S clone 1224
[2] = system: OR5A1 I52V clone 1131
[3] = system: OR5A1 clone 1130
[4] = system: OR5A1 clone 1507
[5] = system: OR5A2 clone 1132
[6] = system: OR5AC2 M200I clone 1490
[7] = system: OR5AK2 M92I clone 1335
[8] = system: OR5AK2 clone 1438
[9] = system: OR5AK3 clone 1336
[10] = system: OR5AL1 clone 1362

SMILES	odorant receptor activation [1]	odorant receptor activation [2]	odorant receptor activation [3]	odorant receptor activation [4]	odorant receptor activation [5]	odorant receptor activation [6]	odorant receptor activation [7]	odorant receptor activation [8]	odorant receptor activation [9]	odorant receptor activation [10]
CCCC(=O)O [butyric acid]	1.03	0.939	0.78	1.28	1.23	1.15	0.665	0.21	1.05	0.259
CCC1(O)C2(C)CCC(C2)C1(C)C (stereo unspecified) [2-ethylfenchol]	1.15	0.926	1.56	1.02	1.32	1.01	0.865	1.13	1.03	0.968
CCCCCCCCOC(C)=O [octyl acetate]	0.899	0.794	0.903	1.12	0.819	1.04	1.11	1.21	0.891	1.43
CC(C)C=O [isobutyraldehyde]	1.09	1.26	0.914	1.01 and 1.09	0.918	0.762 and 1.09	1.53 and 1.1	0.829	1.13 and 0.647	0.761
CC/C=C\CCO [cis-3-hexen-1-ol]	1.16	0.973	0.965	0.868	0.911	0.932	0.822	0.232	1.12	0.22
CC1=NC(C)SC1C (stereo unspecified)	1.27	0.777	0.717	1.04 and 1.08	0.862	1.24 and 0.646	0.949	1.1	1.59	0.94
CCCCCCCOC(C)=O [heptyl acetate]	1.01	1.12	1.03	0.813 and 1.42	1.01	0.831 and 1.16	1.8 and 1.08	0.993	1.34 and 0.954	1.21
CC(=O)OCC=C(C)CCC=C(C)C [geranyl acetate]	0.9	1.02	0.982	0.986 and 1.03	0.948	0.838 and 1.46	2.03 and 1.2	1.15	1.87 and 1.16	1.21
COc1ccccc1O [guaiacol]	0.914	0.983	0.92	0.775 and 1.11	0.985	0.673 and 0.95	1.94 and 1.1	0.805	1.47 and 0.758	0.825
CC1=CCC(C(C)(C)O)CC1 (stereo unspecified) [terpineol]	1.1	1.11	1.54	0.713	1.28	0.797	0.989	1.28	1.14	1.09
COC(=O)c1ccccc1O [methyl salicylate]	0.792	0.817	0.885	1.22	0.764	0.986	0.944	1.49	0.864	1.12
COc1cc(C=O)ccc1O [vanillin]	0.851	0.796	1.32	1.08	1.01	1.01	1.23	1.22	1.15	0.964
CC1CCC(C(C)C)C(O)C1 (single isomer, unassigned; (-)) [(-)-menthol]	0.892	1.02	1.17	2.8	1.19	1.15	0.752	0.971	0.692	0.716
C=C(C)C1CC=C(C)C(=O)C1 (stereo unspecified) [r-carvone]	1.1	0.811	1.06	1.13	0.951	1.01	0.818	1.27	0.802	1.1
CC(=O)C(C)=O [diacetyl]	1.31	1.11	1.13	1.39	1.31	1.26	1.16	1.55	1.14	1.43
O=C1CCCCCCCCCCCCCCO1 [pentadecalactone]	0.774	0.78	1.15	0.816	0.852	1.22	0.807	1.2	0.888	0.956
CC(C)CC(=O)O [isovaleric acid]	1.11	1.11	1.34	0.949	1.03	0.875	0.861	0.899	0.825	1.32
CC12CCC(CC1)C(C)(C)O2 [cineole]	0.916	0.966	0.764	0.901	0.912	0.755	0.795	0.202	1.06	0.228
CC(C)CCC(=O)O [4-methylvaleric acid]	1.11	0.884	0.943	0.971	1.71	0.934	1.05	1.42	0.999	1.2
CC=Cc1ccc(O)c(OC)c1 [isoeugenol]	1.02	1.32	1.06	1.91 and 1.6	0.759	0.884 and 2.24	2.81 and 1.07	1.26	1.81 and 1.02	1.67
CC(C)(C)c1ccc(CCC=O)cc1 [bourgeonal]	0.684	0.861	0.772	0.858	0.828	0.78	0.533	0.158	0.794	0.16
CCCCCOC(C)=O [n-amyl acetate]	0.66	0.486	0.756	0.87 and 0.771	0.704	0.621 and 0.959	0.569	0.841	0.653	0.914

SMILES	odorant receptor activation [1]	odorant receptor activation [2]	odorant receptor activation [3]	odorant receptor activation [4]	odorant receptor activation [5]	odorant receptor activation [6]	odorant receptor activation [7]	odorant receptor activation [8]	odorant receptor activation [9]	odorant receptor activation [10]
CCCCO [1-butanol]	0.925	0.765	1.38	1.17	1.25	1.04	0.803	1.44	0.943	1.34
C=CCc1ccc(OC)c(OC)c1 [eugenol methyl ether]	1.67	1.34	1.39	1.17	1.85	1.39	1.65	1.65	1.35	1.43
c1ccc(Oc2ccccc2)cc1 [diphenyl ether]	0.968	1.14	1.1	1.13	1.09	1.2	1.09	1.12	0.949	0.891
O=C1CCCCCCCCCCCC(=O)OCCO1 [ethylene brassylate]	1.68	1.39	1.71	1.12	1.86	1.22	1.46	1.97	1.33	1.34
CCCCCCCC=O [octyl aldehyde]	0.92	0.803	1.02	1.15	1.05	0.918	1.18	1.09	1.02	1.18
CCCCCCC=O [heptaldehyde]	0.367 and 0.927	0.349 and 0.955	0.361 and 0.806		0.564 and 0.878			0.951 and 0.702		1 and 0.827
C=CCSCC=C [diallyl sulfide]	1.27	1.3	0.958	1.07	1.12	1.27	0.91	1.29	1.03	1.24
CC(C)=CCCC(C)=CC=O [citral]	1.21	1.18	1.03	1.01	0.946	0.93	1.04	0.261	1.43	0.256
CC12C=CCC1C1CCC3=CC(=O)CCC3(C)C1CC2 (stereo unspecified) [androstadienone]	0.807	1.09	1.11	0.98 and 1.13	0.785	0.809 and 1.3	2.06 and 1	0.909	1.58 and 1.01	0.965
c1cnccn1 [pyrazine]	0.845	0.716	0.981	0.686	0.952	0.814	0.995	1.23	0.846	1.18
CCCCCC(C)=O [2-heptanone]	0.984	0.968	0.931	1.11 and 0.654	1.36	1.07 and 0.75	0.781	0.892	0.925	0.956
CC12CCC(C1)C(C)(C)C2=O (stereo unspecified) [fenchone]	0.993	0.956	0.983	1.22	1.14	1.24	0.959	0.969	0.885	0.842
COc1cc(C)ccc1O [2-methoxy-4-methylphenol]	1.15	1.14	1.79	0.725	1.26	0.856	0.982	1.4	0.886	1.51
CC(=O)c1ccccc1 [acetophenone]	1.1	1.12	1.05	0.766 and 0.703	2	1.19 and 1.12	0.565	1.03	1.76	0.923
CCCCCCCCCCC=O [undecanal]	0.9	0.88	1.31	0.966	0.948	1.03	0.936	1.42	1.04	1.07
CCCCCCCCC=O [nonyl aldehyde]	1.04	0.909	1.04	1.06	0.982	0.959	0.809	1.09	0.951	1.44
CC(=O)OC(C)(C)C1CC=C(C)CC1 (stereo unspecified) [terpinyl acetate]	1.18	1.3	1.43	0.886	1.33	1.1	0.875	0.944	0.904	0.896
CCCCCCCCCC=O [decyl aldehyde]	1.2	1.29	1.04	1.21	1.32	1.2	1.62	2.1	1.3	1.58
C=CCc1ccc(OC(C)=O)c(OC)c1 [eugenol acetate]	1.52	2.03	1.71	1.61	2.14	1.74	1.93	1.52	1.6	1.48
CCCCCC(=O)O [caproic acid]	1.25	1.11	1.06	0.891	0.933	0.762	0.71	0.214	1.08	0.222
CC1CCC(C(C)C)C(O)C1 (single isomer, unassigned; (+)) [(+)-menthol]	1.16	0.634	1.54	0.937	1.55	0.986	0.718	1.64	0.9	1.43
CC12C=CCC1C1CCC3CC(=O)CCC3(C)C1CC2 (stereo unspecified) [androstenone]	8.16	4.38	7.19	0.994	6	1.17	1.37	1.11	1.18	1.24

Source: the odorant receptor screen of Mainland et al. (2015)
